Source: PMC10007849
These are yes or no findings as the source states them, for the method shown. In cells and extracts the contact can be indirect. A yes stands for co-enrichment or nearness to the bait. Other partners may have been found.

Amino acid sequences for entries named in this document (tags omitted). Residues count along the entry.
UniProt P80188, residues 21-198: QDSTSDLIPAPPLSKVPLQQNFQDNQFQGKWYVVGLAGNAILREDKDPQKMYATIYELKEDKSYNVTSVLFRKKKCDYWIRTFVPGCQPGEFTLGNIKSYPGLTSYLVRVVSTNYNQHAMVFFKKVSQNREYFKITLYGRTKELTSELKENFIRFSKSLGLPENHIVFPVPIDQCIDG

Target: SFB-LCN2 (lipocalin-2 with SFB tag) (human) (UniProt P80188)
Experiment: affinity purification with mass spectrometry; LCN2 precipitated from lysate of the stable SFB-LCN2 CAL-27 cell line (S-protein agarose beads for SFB-LCN2; the methods also say proteins immunoprecipitated with anti-LCN2 antibody were digested); silver staining; peptides analysed by mass spectrometry

Epidermal growth factor receptor (EGFR) (from UniProt P00533 25-1210)
binding: binds
